From patent publication US5936105A, “14-EPI-19-nor-vitamin D compounds and methods” (Tetrionics, Inc., priority 1998, dated 1999)
Entries after “also recorded” stand apart in the source; their conditions may differ.

Tested on: HL-60 cells
Assay: Therapeutic Potential (T.P.) = cellular activity/calcemic activity
Set-up: species or system human
Settings: relative to 1,25-(OH)2 D3

SMILES	therapeutic potential, in words
C[C@H](CCCC(C)(C)O)[C@H]1CC[C@@H]2/C(=C/C=C3C[C@@H](O)C[C@H](O)C3)CCC[C@@]21C [[27], 14-epi-19-nor-1α,25-dihydroxyvitamin D3]	lower therapeutic potential; also recorded: enhanced therapeutic potential relative to the natural hormone
C[C@@H](CCCC(C)(C)O)[C@H]1CC[C@@H]2/C(=C/C=C3C[C@@H](O)C[C@H](O)C3)CCC[C@@]21C [[29], 14-epi-20-epi-19-nor-1α,25-dihydroxyvitamin D3]	enhanced therapeutic potential relative to the natural hormone; also recorded: exceeding the natural hormone by two orders of magnitude
